The record followed here is paper PMC10654515.

The chains behind the UniProt entries cited, without tags or fusion partners.
UniProt Q7KZF4: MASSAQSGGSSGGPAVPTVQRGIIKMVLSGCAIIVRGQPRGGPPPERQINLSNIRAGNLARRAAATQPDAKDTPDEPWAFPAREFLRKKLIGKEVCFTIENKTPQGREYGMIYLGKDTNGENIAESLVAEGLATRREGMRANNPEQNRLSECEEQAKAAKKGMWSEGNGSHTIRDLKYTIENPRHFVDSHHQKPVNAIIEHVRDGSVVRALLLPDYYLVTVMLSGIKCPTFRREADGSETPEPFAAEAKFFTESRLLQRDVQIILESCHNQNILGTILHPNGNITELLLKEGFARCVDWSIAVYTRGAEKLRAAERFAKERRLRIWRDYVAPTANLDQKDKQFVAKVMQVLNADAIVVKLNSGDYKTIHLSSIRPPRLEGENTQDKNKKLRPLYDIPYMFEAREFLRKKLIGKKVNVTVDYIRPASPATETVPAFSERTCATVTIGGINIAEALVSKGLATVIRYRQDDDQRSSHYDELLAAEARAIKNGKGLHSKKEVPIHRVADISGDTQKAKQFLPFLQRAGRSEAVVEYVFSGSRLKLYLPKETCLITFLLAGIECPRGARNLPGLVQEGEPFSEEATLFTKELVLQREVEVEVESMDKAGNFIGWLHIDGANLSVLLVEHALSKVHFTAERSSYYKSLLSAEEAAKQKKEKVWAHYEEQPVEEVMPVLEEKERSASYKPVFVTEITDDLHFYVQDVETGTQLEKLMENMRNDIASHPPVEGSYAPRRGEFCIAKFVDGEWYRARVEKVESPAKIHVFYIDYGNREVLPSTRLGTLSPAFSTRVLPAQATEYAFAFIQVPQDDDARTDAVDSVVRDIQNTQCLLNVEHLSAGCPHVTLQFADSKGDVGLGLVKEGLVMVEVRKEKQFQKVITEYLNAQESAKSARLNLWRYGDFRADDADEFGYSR

No constants are given. Whether binding was seen depends on the method and setting. In cells and extracts the contact can be indirect. Some results given as binding are weak or reduced against the parent protein; the word gives no strength.

For test [1], the target named is SND1 (endogenous, VCaP cells) (human (endogenous in VCaP)) (UniProt Q7KZF4). As to the kind of experiment: proximity ligation; Duolink PLA in fixed, permeabilised VCaP cells; anti-ERG together with anti-SND1 or anti-MTDH antibodies; confocal imaging.
Test [2] has the same target. As to the kind of experiment: co-IP; endogenous proteins from VCaP lysate; primary antibodies (anti-SND1, anti-MTDH) and protein A/G beads at 4 °C; IP buffer 50 mM Tris-HCl pH 7.5, 1% Triton X-100, 50 mM NaCl, 0.1 mM EDTA; also after siRNA knockdown of SND1 or MTDH.

B1: ERG (endogenous, VCaP cells) (protein, UniProt P11308 1-479)
chain: MASTIKEALSVVSEDQSLFECAYGTPHLAKTEMTASSSSDYGQTSKMSPRVPQQDWLSQPPARVTIKMECNPSQVNGSRNSPDECSVAKGGKMVGSPDTVGMNYGSYMEEKHMPPPNMTTNERRVIVPADPTLWSTDHVRQWLEWAVKEYGLPDVNILLFQNIDGKELCKMTKDDFQRLTPSYNADILLSHLHYLRETPLPHLTSDDVDKALQNSPRLMHARNTGGAAFIFPNTSVYPEATQRITTRPDLPYEPPRRSAWTGHGHPTPQSKAAQPSPSTVPKTEDQRPQLDPYQILGPTSSRLANPGSGQIQLWQFLLELLSDSSNSSCITWEGTNGEFKMTDPDEVARRWGERKSKPNMNYDKLSRALRYYYDKNIMTKVHGKRYAYKFDFHGIAQALQPHPPESSLYKYPSDLPYMGSYHAHPQKMNFVAPHPPALPVTSSSFFAAPNPYWNSPTGGIYPNTRLPTSHMPSHLGTYY
As to B1, the binding result in test [1] and in test [2] was “binds” each time.
